Data published in paper PMC3796550.
Results are given in words; binding and its absence hold for the method and conditions named. Binding seen in cells or lysates may run through a third protein. Some entries that bind do so weakly or less than the wild type.

Amino acid sequences for entries named in this document (tags omitted). A change or cut given only in a name is not applied to a line headed by its entry.
UniProt P06239: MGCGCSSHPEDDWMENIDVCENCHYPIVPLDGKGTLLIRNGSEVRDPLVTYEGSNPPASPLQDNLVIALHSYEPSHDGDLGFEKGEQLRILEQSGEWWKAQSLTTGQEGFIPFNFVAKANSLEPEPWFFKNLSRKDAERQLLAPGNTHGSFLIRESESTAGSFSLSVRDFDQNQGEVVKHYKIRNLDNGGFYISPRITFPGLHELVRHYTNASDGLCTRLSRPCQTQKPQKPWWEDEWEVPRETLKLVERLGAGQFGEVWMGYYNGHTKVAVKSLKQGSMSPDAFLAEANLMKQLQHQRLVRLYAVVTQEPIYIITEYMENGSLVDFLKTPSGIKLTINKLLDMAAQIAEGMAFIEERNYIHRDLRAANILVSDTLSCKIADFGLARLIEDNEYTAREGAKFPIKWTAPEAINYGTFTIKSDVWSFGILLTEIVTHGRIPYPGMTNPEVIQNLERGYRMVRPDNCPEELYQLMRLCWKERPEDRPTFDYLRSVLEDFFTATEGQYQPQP
UniProt Q9BZS1: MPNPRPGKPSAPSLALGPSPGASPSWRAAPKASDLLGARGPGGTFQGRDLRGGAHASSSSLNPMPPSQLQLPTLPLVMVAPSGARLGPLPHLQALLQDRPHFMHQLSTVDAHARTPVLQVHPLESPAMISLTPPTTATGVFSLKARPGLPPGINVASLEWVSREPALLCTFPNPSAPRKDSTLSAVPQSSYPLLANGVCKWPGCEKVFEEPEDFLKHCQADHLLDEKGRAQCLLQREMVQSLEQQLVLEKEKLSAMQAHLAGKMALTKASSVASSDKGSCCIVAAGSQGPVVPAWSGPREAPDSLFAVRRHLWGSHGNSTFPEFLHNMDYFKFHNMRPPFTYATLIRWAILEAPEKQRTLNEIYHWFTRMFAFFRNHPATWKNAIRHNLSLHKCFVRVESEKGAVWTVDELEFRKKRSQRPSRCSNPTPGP

Legend:
[1] = molecular target: LCK (pcDNA4/myc-His) (human) (UniProt P06239); test: co-IP; lysates of transfected cells (MCF-7) immunoprecipitated with anti-Myc antibody, immunoblotted with anti-Myc and anti-FLAG
[2] = molecular target: LCK Y505F (human) (UniProt P06239); test: as above

Q: How did the binding [1] turn out when FOXP3-FLAG (from UniProt Q9BZS1 1-431) was run?
A: binds

Q: What about the binding [2] of the same substance?
A: binds
